From patent US20020068057A1, “TREATMENT OF AUTOIMMUNE AND INFLAMMATORY DISORDERS” (priority 1996, published 2002)
At least one compound was matched to its structure with a doubt left.

Experiments:
Type in all cases: in vivo, mouse
[1] = test system: collagen type II induced arthritis; test: Collagen-induced arthritis, Example 2B: paw-swelling; settings: p55-sf2 2, 20, 100 μg; anti-TNF mAb 300 μg; methylprednisolone acetate 2 mg/kg; human IgG1 mAb; i.p. days 1, 4, 7
[2] = test system: collagen type II induced arthritis; test: Collagen-induced arthritis, Example 2B: limb involvement; settings: only anti-TNF mAb reached significance (P<0.05)
Description: (§1) Male DBA/1 mice were immunized intradermally with 100 μg of bovine type II collagen emulsified in complete Freund's adjuvant (Difco Laboratories, East Molsey, UK). The mean day of onset of arthritis was approximately one month after immunization. After the onset of clinically evident arthritis (erythema and/or swelling), mice were injected intraperitoneally with therapeutic agents. Arthritis was monitored for clinical score and paw swelling (measured with calipers) for 10 days, after which the mice were sacrificed and joints were processed for histology. Sera were collected for analysis on day 10. Therapeutic agents were administered on day 1 (onset), day 4 and day 7. The therapeutic agents included TNF receptor/IgG fusion protein (p55-sf2), anti-TNF antibody, anti-CD4 antibody, and methylprednisolone acetate.
(§2) Using the Experimental Procedure described above, groups of mice were subjected to treatment with TNF receptor/IgG protein (2 μg) (18 mice), TNF receptor/IgG protein (20 μg) (18 mice), TNF receptor/IgG protein (100 μg) (12 mice), anti-TNF monoclonal antibody (mAb) (300 μg) (17 mice), methylprednisolone acetate (6 mice), an irrelevant human IgG1 monoclonal antibody (mAb) (6 mice), or saline (control). […]

[3] = test system: collagen type II induced arthritis; test: Collagen-induced arthritis, Example 2B: histology of PIP joints; settings: 2 mg/kg body weight i.p.; listed as methylprednisolone acetate
Description: as §1, §2

For `CC(=O)OCC(=O)[C@@]1(O)CC[C@H]2[C@@H]3C[C@H](C)C4=CC(=O)C=C[C@]4(C)[C@H]3[C@@H](O)C[C@@]21C` [Methylprednisolone acetate, methylprednisolone acetate], the “reduction in paw-swelling over the treatment period” value [1] was “comparable in magnitude to the reductions given p55-sf2 at 100 μg or anti-TNF mAb at 300 μg”, the limb recruitment [2] was “strong trend towards reduced limb recruitment” and the “PIP Joints with Erosions (%)” value [3] was “did not significantly reduce joint erosion”.
